{"source": "PubChem BioAssay AID2685", "about": "(National Center for Advancing Translational Sciences (NCATS), 2010)", "experiment": "qHTS Assay for Lipid Storage Modulators in Drosophila S3 Cells;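 as to cell number change: cells counted by Cell Tracker Red CMTPX staining in the red channel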", "conditions": "BODIPY lipid droplet fluorescence, 18-24 h; for cell number change: measured here: cell count max response, cells fed with added oleic acid", "in_short": "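Drosophila S3 cells got compounds at several concentrations plus oleic acid (400 uM solution). Laser-scanning cytometry with 488 nm excitation read lipid droplets at 500-530 nm and cells at 575-640 nm. Percent activity was relative to 20 uM Triacsin C.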", "key": {"[1]": {"conditions": "measured here: cell number channel AC50, cells fed with added oleic acid"}, "[2]": {"conditions": "measured here: lipid fluorescence (Fed channel) AC50, cells fed with added oleic acid"}}, "note": "This is one part of the list. These are further read-outs of the screen, such as a control signal, another cell line or another target. No call is given for them. Compounds called inactive in the main read-out are mostly missing here. The note in brackets gives the kind of curve behind each potency; many fits are weak.", "data": [{"smiles": "COc1ccc(Cl)cc1NC(=O)CN(C)C(=O)c1cn(-c2ccccc2)nc1-c1cccnc1", "values": [{"measurement": "cell number change", "value": -14, "unit": "%"}, {"measurement": "AC50", "setting": "[1]", "value": "0.517 µM [rising, full curve, poor fit]"}, {"measurement": "AC50", "setting": "[2]", "value": "20.6 µM [falling, single point]"}]}, {"smiles": "COc1ccccc1CNC(=O)CSc1nc(C)cs1", "values": [{"measurement": "AC50", "setting": "[2]", "value": "4.11 µM [falling, single point]"}]}, {"smiles": "CC1(C)COC(c2cc([N+](=O)[O-])ccc2Cl)=N1", "values": [{"measurement": "cell number change", "value": -20.4, "unit": "%"}, {"measurement": "AC50", "setting": "[1]", "value": "0.0517 µM [falling, full curve, poor fit]"}]}, {"smiles": "COC(=O)c1cc(C)sc1NC(=O)CC1Nc2ccccc2NC1=O", "note": "(stereo not drawn)", "values": [{"measurement": "AC50", "setting": "[2]", "value": "18.4 µM [falling, single point]"}]}, {"smiles": "COc1ccc(C(CNC(=O)c2ccccc2SC)N(C)C)cc1", "note": "(stereo not drawn)", "values": [{"measurement": "cell number change", "value": -3.14, "unit": "%"}, {"measurement": "AC50", "setting": "[1]", "value": "0.00461 µM [falling, full curve, poor fit]"}]}, {"smiles": "Cc1ccc(S(=O)(=O)NCC(c2ccccc2)N2CCN(CCC#N)CC2)cc1", "note": "(stereo not drawn)", "values": [{"measurement": "cell number change", "value": 11.7, "unit": "%"}, {"measurement": "AC50", "setting": "[2]", "value": "29.1 µM [rising, single point]"}]}, {"smiles": "Cc1cc(C)n(C(=O)c2ccc(Cn3nc(C)c(Br)c3C)o2)n1", "values": [{"measurement": "cell number change", "value": -42.7, "unit": "%"}, {"measurement": "AC50", "setting": "[1]", "value": "13 µM [falling, partial curve]"}, {"measurement": "AC50", "setting": "[2]", "value": "16.4 µM [falling, partial curve]"}]}, {"smiles": "OC(CN1CCN(c2ccccc2Cl)CC1)c1ccccc1", "note": "(stereo not drawn)", "values": [{"measurement": "cell number change", "value": 11.7, "unit": "%"}, {"measurement": "AC50", "setting": "[1]", "value": "6.51 µM [rising, single point]"}]}, {"smiles": "N#CC1=C(N)N2C(=C(C#N)C1c1ccc(Br)cc1)Nc1ccccc12", "note": "(stereo not drawn)", "values": [{"measurement": "cell number change", "value": -66.7, "unit": "%"}, {"measurement": "AC50", "setting": "[1]", "value": "14.6 µM [falling, single point]"}, {"measurement": "AC50", "setting": "[2]", "value": "20.6 µM [falling, partial curve]"}]}, {"smiles": "CCOc1ccc(NC(=O)CC(NCc2ccccn2)C(=O)O)cc1", "note": "(stereo not drawn)", "values": [{"measurement": "cell number change", "value": -22, "unit": "%"}, {"measurement": "AC50", "setting": "[2]", "value": "32.6 µM [falling, single point]"}]}, {"smiles": "Cc1nc2ccccc2n1CC(O)COc1ccccc1Cl", "note": "(stereo not drawn)", "values": [{"measurement": "AC50", "setting": "[1]", "value": "6.51 µM [rising, single point]"}, {"measurement": "AC50", "setting": "[2]", "value": "6.51 µM [rising, single point]"}]}, {"smiles": "CC(=O)c1ccc(NC(=O)Cn2cnc(S(=O)(=O)N3CCCCC3)c2)cc1", "values": [{"measurement": "cell number change", "value": -14.6, "unit": "%"}]}, {"smiles": "Cc1ccc(C2=CC(=O)C[C@H](c3ccc(Cl)cc3)C2)cc1", "values": [{"measurement": "cell number change", "value": -29.6, "unit": "%"}, {"measurement": "AC50", "setting": "[2]", "value": "0.517 µM [rising, partial curve, poor fit]"}]}, {"smiles": "COc1ccc(-c2nn(C)c(=O)c3ccccc23)cc1NC(=O)Cn1nc(C)c2ccccc2c1=O", "values": [{"measurement": "cell number change", "value": -10.4, "unit": "%"}, {"measurement": "AC50", "setting": "[1]", "value": "6.51 µM [rising, single point]"}, {"measurement": "AC50", "setting": "[2]", "value": "0.58 µM [falling, single point]"}]}, {"smiles": "O=C(NCCc1csc(-c2ccccc2)n1)c1ccco1", "values": [{"measurement": "cell number change", "value": -18.2, "unit": "%"}, {"measurement": "AC50", "setting": "[2]", "value": "3.66 µM [rising, single point]"}]}, {"smiles": "COc1ccccc1/C=N/NC(=O)c1c(-c2ccccc2)noc1C", "values": [{"measurement": "cell number change", "value": -11.9, "unit": "%"}]}, {"smiles": "CCOCc1nc(C)c(Cl)c(NS(=O)(=O)c2ccc(N)cc2)n1", "values": [{"measurement": "cell number change", "value": 8.16, "unit": "%"}, {"measurement": "AC50", "setting": "[2]", "value": "7.31 µM [falling, single point]"}]}, {"smiles": "Cc1cc(OCC(=O)NC2CC(C)(C)NC(C)(C)C2)c(C)cc1Br", "values": [{"measurement": "cell number change", "value": -0.293, "unit": "%"}, {"measurement": "AC50", "setting": "[2]", "value": "23.1 µM [rising, single point]"}]}, {"smiles": "CCCOc1ccc(S(=O)(=O)Nc2ccccn2)c2ccccc12", "values": [{"measurement": "cell number change", "value": 15, "unit": "%"}, {"measurement": "AC50", "setting": "[2]", "value": "29.1 µM [rising, single point]"}]}, {"smiles": "O=S(=O)(Nc1ccccc1O)c1cccc2cccnc12", "values": [{"measurement": "cell number change", "value": -7.47, "unit": "%"}, {"measurement": "AC50", "setting": "[2]", "value": "13 µM [falling, partial curve]"}]}, {"smiles": "COC(=O)c1nc2nc(C)cc(C(F)(F)F)n2n1", "values": [{"measurement": "cell number change", "value": 14.8, "unit": "%"}]}, {"smiles": "CCOC(=O)C1(C)NC(c2ccco2)C2C(=O)N(c3ccccc3)C(=O)C21", "note": "(stereo not drawn)", "values": [{"measurement": "AC50", "setting": "[2]", "value": "0.164 µM [falling, full curve, poor fit]"}]}, {"smiles": "O=C(Nc1ccc(-c2cn3c(n2)SCC3)cc1)c1ccc2c(c1)OCO2", "values": [{"measurement": "cell number change", "value": 31.2, "unit": "%"}, {"measurement": "AC50", "setting": "[1]", "value": "29.1 µM [rising, single point]"}, {"measurement": "AC50", "setting": "[2]", "value": "20.6 µM [rising, single point]"}]}, {"smiles": "CCn1c(CNc2ccc(F)cc2)nnc1SCC(=O)OC1CCCCC1", "values": [{"measurement": "cell number change", "value": 4.42, "unit": "%"}, {"measurement": "AC50", "setting": "[2]", "value": "1.03 µM [falling, full curve, poor fit]"}]}, {"smiles": "CCOc1ccc(/C=C/C(=O)N(C)CC(=O)Nc2cccc(F)c2)cc1OCC", "values": [{"measurement": "cell number change", "value": 50.5, "unit": "%"}, {"measurement": "AC50", "setting": "[1]", "value": "8.2 µM [rising, partial curve, poor fit]"}]}, {"smiles": "O=C(CSc1nnc(NC(=O)c2ccc(F)cc2)s1)NC1CC1", "values": [{"measurement": "cell number change", "value": 7.26, "unit": "%"}, {"measurement": "AC50", "setting": "[2]", "value": "29.1 µM [rising, single point]"}]}, {"smiles": "CCOc1ccccc1N1C(=O)CC(N(O)c2ccccc2)C1=O", "note": "(stereo not drawn)", "values": [{"measurement": "cell number change", "value": 8.29, "unit": "%"}, {"measurement": "AC50", "setting": "[2]", "value": "18.4 µM [rising, single point]"}]}, {"smiles": "CCCNC(=O)c1ccc2c(=O)n(Cc3ccco3)c(=S)[nH]c2c1", "values": [{"measurement": "AC50", "setting": "[1]", "value": "0.58 µM [rising, partial curve]"}, {"measurement": "AC50", "setting": "[2]", "value": "1.03 µM [rising, partial curve]"}]}, {"smiles": "Cc1c(N2C(=O)CSC2=S)c(=O)n(-c2ccccc2)n1C", "values": [{"measurement": "cell number change", "value": 6.99, "unit": "%"}, {"measurement": "AC50", "setting": "[1]", "value": "6.51 µM [falling, single point]"}, {"measurement": "AC50", "setting": "[2]", "value": "6.51 µM [falling, single point]"}]}]}
